# Source: the supplement of paper PMC11732987, “Enantioselective OTUD7B fragment discovery through chemoproteomics screening and high-throughput optimisation” (Communications Chemistry, 2025)
# By UniProt entry, the sequences of proteins in these tests, tags left out. Where a name states a change or a piece, a line headed by the entry shows the natural chain unless it says otherwise. Residues count along the entry.
# UniProt Q99832: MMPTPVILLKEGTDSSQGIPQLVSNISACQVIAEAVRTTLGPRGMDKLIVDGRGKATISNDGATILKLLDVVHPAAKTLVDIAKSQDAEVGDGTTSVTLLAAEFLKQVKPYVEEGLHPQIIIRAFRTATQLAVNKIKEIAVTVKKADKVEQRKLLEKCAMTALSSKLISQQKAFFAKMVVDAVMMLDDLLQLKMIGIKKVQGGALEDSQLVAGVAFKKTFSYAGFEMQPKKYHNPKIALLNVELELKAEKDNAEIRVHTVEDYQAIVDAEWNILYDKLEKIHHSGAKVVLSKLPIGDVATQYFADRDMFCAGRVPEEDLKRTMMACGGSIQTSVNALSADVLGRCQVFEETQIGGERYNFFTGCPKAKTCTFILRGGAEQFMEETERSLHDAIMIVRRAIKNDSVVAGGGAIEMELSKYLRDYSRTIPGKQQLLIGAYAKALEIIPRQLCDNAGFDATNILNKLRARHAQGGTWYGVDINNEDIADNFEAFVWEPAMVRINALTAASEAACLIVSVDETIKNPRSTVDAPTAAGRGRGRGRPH
# UniProt Q01850: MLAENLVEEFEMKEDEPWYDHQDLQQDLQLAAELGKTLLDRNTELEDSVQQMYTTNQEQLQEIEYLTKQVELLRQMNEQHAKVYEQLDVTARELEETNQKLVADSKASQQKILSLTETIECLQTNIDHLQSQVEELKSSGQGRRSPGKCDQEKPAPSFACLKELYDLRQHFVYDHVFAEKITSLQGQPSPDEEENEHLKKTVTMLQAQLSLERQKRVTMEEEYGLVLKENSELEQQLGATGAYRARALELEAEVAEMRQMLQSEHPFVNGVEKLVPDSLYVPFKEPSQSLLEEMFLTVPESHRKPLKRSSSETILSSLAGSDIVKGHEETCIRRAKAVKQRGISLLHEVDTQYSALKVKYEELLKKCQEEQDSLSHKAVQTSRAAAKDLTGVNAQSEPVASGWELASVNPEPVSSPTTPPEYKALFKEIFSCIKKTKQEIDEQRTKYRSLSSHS
# UniProt P78371: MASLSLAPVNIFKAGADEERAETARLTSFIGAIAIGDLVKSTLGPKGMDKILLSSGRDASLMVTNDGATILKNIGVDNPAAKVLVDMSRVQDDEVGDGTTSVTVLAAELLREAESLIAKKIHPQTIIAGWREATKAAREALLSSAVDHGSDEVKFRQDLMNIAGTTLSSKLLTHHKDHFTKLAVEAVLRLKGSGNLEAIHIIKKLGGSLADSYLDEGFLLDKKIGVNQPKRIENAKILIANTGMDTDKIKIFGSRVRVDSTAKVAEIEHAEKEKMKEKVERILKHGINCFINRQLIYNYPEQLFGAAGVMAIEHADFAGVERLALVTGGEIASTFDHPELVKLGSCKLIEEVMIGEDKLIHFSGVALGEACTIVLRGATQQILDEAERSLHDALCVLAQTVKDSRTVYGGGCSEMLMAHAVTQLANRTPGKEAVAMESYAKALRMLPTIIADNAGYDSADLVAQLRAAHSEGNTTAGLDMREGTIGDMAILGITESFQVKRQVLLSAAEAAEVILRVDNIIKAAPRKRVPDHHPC
# UniProt Q8IX12: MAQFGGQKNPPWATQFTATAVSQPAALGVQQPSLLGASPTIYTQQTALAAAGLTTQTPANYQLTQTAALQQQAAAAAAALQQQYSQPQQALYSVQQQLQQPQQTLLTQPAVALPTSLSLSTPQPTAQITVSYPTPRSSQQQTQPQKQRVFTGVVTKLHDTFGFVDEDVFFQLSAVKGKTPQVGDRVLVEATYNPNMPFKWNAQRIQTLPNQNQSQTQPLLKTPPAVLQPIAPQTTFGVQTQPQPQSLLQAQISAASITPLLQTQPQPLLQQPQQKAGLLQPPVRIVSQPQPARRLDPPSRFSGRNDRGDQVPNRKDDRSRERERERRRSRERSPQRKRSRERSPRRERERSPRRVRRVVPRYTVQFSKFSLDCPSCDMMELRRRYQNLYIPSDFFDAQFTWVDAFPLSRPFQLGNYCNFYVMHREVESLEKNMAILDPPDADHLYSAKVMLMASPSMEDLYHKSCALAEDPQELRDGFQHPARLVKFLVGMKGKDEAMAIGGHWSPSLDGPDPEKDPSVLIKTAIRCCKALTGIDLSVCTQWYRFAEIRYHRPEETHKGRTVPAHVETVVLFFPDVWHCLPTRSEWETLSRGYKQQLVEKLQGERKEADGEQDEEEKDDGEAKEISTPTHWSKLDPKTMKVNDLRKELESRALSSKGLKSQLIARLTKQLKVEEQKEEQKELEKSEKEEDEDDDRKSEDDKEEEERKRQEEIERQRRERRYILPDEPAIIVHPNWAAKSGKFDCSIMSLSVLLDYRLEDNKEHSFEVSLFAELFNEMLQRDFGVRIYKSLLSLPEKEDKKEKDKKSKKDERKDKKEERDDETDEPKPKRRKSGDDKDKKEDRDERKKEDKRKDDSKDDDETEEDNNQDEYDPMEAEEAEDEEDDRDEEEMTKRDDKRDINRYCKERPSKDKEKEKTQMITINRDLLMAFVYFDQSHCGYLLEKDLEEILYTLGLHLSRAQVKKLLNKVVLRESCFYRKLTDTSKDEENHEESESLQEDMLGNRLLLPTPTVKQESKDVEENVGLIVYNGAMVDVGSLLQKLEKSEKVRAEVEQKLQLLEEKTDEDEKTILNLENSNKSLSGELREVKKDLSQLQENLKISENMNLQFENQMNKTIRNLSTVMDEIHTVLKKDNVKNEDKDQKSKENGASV
# UniProt Q9H6F5: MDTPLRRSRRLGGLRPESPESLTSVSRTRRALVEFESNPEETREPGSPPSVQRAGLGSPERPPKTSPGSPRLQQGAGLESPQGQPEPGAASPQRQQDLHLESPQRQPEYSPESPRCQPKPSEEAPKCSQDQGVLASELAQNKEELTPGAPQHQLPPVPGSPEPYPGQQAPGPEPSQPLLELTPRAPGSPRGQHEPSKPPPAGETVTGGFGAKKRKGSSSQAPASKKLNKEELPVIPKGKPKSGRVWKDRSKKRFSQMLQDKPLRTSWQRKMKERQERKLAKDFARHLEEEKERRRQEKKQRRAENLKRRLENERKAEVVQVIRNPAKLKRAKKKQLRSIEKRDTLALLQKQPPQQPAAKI
# UniProt Q00534, 306-326: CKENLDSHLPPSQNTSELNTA
# UniProt P49454: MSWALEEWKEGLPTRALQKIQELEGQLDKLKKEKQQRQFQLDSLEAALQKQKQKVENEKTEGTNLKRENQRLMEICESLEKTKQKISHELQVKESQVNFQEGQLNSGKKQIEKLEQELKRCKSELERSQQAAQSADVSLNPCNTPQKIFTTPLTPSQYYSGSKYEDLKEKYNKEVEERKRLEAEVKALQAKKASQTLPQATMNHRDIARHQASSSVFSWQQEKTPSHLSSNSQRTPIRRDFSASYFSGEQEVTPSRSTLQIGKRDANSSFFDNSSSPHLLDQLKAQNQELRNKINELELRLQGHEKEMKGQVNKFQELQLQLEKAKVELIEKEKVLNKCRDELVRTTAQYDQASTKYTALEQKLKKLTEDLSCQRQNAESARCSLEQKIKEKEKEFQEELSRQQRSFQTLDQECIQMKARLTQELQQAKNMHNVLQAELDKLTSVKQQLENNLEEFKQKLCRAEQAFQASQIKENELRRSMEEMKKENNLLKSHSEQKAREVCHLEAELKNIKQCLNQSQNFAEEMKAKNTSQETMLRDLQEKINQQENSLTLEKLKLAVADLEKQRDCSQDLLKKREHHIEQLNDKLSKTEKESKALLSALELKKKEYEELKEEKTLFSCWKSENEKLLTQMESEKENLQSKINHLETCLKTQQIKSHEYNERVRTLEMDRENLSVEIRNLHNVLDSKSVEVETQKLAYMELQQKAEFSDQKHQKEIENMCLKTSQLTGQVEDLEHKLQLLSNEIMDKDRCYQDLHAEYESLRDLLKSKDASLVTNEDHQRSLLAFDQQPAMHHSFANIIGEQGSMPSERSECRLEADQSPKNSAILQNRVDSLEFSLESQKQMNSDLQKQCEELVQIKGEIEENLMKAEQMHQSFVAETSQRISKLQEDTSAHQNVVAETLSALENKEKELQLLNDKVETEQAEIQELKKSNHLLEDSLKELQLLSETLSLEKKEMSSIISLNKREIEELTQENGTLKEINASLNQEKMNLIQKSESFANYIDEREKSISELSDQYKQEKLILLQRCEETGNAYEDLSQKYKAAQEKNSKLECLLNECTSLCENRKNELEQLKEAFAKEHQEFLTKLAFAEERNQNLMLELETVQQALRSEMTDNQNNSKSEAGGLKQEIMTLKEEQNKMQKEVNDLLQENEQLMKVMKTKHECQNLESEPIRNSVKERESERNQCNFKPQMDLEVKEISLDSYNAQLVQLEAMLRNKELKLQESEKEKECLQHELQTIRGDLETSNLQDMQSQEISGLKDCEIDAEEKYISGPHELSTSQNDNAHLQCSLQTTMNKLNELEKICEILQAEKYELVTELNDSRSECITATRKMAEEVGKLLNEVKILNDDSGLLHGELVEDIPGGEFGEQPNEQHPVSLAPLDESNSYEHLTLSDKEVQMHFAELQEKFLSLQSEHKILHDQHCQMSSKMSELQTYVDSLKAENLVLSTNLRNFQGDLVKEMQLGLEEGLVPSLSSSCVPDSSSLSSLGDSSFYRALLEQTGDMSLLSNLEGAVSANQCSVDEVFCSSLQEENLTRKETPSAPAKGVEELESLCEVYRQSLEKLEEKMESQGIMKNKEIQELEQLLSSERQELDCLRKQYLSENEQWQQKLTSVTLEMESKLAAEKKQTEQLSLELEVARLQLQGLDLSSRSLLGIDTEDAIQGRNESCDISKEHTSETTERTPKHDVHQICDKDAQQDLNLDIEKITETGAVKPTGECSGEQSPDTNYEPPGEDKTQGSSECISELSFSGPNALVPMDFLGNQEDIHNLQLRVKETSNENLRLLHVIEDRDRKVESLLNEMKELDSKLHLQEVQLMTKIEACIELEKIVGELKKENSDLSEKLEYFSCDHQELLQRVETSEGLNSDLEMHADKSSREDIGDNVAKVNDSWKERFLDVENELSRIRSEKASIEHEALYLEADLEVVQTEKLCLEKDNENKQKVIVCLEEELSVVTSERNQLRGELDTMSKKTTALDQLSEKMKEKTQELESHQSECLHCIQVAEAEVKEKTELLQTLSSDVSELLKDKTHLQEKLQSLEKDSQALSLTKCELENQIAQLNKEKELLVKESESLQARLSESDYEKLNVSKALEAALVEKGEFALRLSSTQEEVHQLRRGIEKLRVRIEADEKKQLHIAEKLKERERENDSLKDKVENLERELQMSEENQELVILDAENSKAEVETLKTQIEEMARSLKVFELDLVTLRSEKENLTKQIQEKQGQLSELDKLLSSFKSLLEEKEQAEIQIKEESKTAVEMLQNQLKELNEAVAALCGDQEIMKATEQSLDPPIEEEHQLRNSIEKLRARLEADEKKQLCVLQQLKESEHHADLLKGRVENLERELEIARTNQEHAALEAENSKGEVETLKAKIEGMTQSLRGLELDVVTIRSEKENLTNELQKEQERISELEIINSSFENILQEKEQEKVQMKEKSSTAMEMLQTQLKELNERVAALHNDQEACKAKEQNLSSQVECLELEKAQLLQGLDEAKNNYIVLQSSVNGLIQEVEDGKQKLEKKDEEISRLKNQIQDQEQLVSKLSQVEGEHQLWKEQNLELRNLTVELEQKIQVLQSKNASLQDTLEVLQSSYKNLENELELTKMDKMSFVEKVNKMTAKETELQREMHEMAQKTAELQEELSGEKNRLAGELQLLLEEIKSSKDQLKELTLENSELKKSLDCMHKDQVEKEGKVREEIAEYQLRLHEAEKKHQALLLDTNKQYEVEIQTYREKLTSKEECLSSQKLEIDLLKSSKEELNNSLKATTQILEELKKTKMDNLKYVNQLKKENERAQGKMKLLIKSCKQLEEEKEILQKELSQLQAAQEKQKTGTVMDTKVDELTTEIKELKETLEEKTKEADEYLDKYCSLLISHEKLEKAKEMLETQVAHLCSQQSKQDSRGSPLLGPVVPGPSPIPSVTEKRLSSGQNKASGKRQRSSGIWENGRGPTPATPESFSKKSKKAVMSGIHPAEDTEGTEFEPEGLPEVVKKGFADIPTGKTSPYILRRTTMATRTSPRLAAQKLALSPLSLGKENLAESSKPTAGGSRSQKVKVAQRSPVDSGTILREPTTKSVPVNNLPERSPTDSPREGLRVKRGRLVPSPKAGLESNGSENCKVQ
# UniProt Q86WR0: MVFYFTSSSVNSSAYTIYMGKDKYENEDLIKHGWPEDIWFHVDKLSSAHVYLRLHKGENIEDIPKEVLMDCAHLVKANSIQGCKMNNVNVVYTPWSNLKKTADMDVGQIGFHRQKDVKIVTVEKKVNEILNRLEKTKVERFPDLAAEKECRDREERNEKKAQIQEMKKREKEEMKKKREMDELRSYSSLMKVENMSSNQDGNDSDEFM
# The other results are listed elsewhere or left out. The data scatter; read single values as rough.
# Compound: ClCC(=O)N[C@@H]1CCCc2ccccc12
# Test: log2 mean competition ratio of IA-DTB cysteine labelling (DMSO/compound) (log2 ratio); higher = stronger cysteine engagement by compound
# Conditions: 50 µM; treatment time: 4 h; cell line lysate: HEK293T
# Description: (§1)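 IA-DTB competitive cysteine chemoproteomics in HEK293T RIPA lysate. Lysates were treated with compound 29 or 30 at 50 or 200 µM for 4 h, then IA-DTB (500 µM, 1 h), trypsin-digested, NeutrAvidin-enriched and analysed by diaPASEF. Competition ratio = intensity DMSO / intensity compound (n=4 treated, n=64 DMSO); binding: mean log2 CR ≥ 1 and p ≤ 0.05 plus QC filters. Target is the cysteine site.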
row,Target,log2 mean competition ratio
1,CDK5RAP2 C1528 (UniProt Q96SN8),0.214
2,CCDC77 C455,-0.0657
3,CCDC74A;CCDC74B C241;(C241),0.442
4,CCT7 C310 (UniProt Q99832),0.043
5,CCDC88C C1467 (UniProt Q9P219),0.0601
6,CCT8 C430,-0.0797
7,CDC25C C42 (UniProt P30307),0.047
8,CDR2 C432 (UniProt Q01850),0.166
9,CCT2 C289 (UniProt P78371),-0.112
10,CCAR1 C465 (UniProt Q8IX12),-0.271
11,CEP170B C217 (UniProt Q9Y4F5),0.0309
12,CDC42BPA C912 (UniProt Q5VT25),-0.31
13,CERT1 C65,-0.203
14,CEP43 C244,-0.439
15,CHCHD3 C112 (UniProt Q9NX63),-0.119
16,CDC123 C170 (UniProt O75794),-0.217
17,CDK5 C94 (UniProt Q00535),-0.138
18,CCDC86 C116 (UniProt Q9H6F5),0.23
19,CFL1 C39,-0.357

row,Target,log2 mean competition ratio
1,CDK11A C428 (UniProt Q9UQ88),0.165
2,CEP170 C967 (UniProt Q5SW79),-0.0047
3,CDK6 C306 (UniProt Q00534),0.0261
4,CEP350 C1432 (UniProt Q5VT06),-0.317
5,CDK2AP1;CDK2AP2 C105;(C116),-0.162
6,CEP112 C514 (UniProt Q8N8E3),-0.391
7,CDKN2AIP C178 (UniProt Q9NXV6),-0.0751
8,CENPF C650 (UniProt P49454),-0.0747
9,CCDC25 C83 (UniProt Q86WR0),0.0174
10,CCT4 C221 (UniProt P50991),-0.178
11,CDCA2 C714 (UniProt Q69YH5),-0.415
12,CDCA2 C235 (UniProt Q69YH5),-0.335
13,CDC16 C133 (UniProt Q13042),0.229
14,CENPF C621 (UniProt P49454),0.551
15,CDC34 C191 (UniProt P49427),-0.332
16,CENPF C1328 (UniProt P49454),0.0188
17,CDC42BPA C678 (UniProt Q5VT25),-0.506
18,CCT7 C450 (UniProt Q99832),-0.376

# Same assay, conditions: 200 µM; treatment time: 4 h; cell line lysate: HEK293T
row,Target,log2 mean competition ratio
1,CDK5RAP2 C1528 (UniProt Q96SN8),0.294
2,CCDC77 C455,-0.0643
3,CCDC74A;CCDC74B C241;(C241),-0.0317
4,CCT7 C310 (UniProt Q99832),-0.203
5,CCDC88C C1467 (UniProt Q9P219),-0.591
6,CCT8 C430,0.0042
7,CDC25C C42 (UniProt P30307),-0.0773
8,CDR2 C432 (UniProt Q01850),0.015
9,CCT2 C289 (UniProt P78371),0.099
10,CCAR1 C465 (UniProt Q8IX12),-0.0124
11,CEP170B C217 (UniProt Q9Y4F5),0.0746
12,CDC42BPA C912 (UniProt Q5VT25),-0.28
13,CERT1 C65,-0.0288
14,CEP43 C244,-0.0189
15,CHCHD3 C112 (UniProt Q9NX63),0.0435
16,CDC123 C170 (UniProt O75794),-0.419
17,CDK5 C94 (UniProt Q00535),-0.00468
18,CCDC86 C116 (UniProt Q9H6F5),0.0157
19,CFL1 C39,-0.225

row,Target,log2 mean competition ratio
1,CDK11A C428 (UniProt Q9UQ88),-0.0142
2,CEP170 C967 (UniProt Q5SW79),-0.261
3,CDK6 C306 (UniProt Q00534),0.167
4,CEP350 C1432 (UniProt Q5VT06),0.42
5,CDK2AP1;CDK2AP2 C105;(C116),0.168
6,CEP112 C514 (UniProt Q8N8E3),-0.464
7,CDKN2AIP C178 (UniProt Q9NXV6),-0.231
8,CENPF C650 (UniProt P49454),-0.0962
9,CCDC25 C83 (UniProt Q86WR0),-0.197
10,CCT4 C221 (UniProt P50991),-0.0209
11,CDCA2 C714 (UniProt Q69YH5),-0.101
12,CDCA2 C235 (UniProt Q69YH5),-0.314
13,CDC16 C133 (UniProt Q13042),-0.17
14,CENPF C621 (UniProt P49454),0.0892
15,CDC34 C191 (UniProt P49427),0.0679
16,CENPF C1328 (UniProt P49454),0.0722
17,CDC42BPA C678 (UniProt Q5VT25),0.512
18,CCT7 C450 (UniProt Q99832),0.177

# Compound: ClCC(=O)N[C@H]1CCCc2ccccc12
# Test: as above
# Conditions: 50 µM; treatment time: 4 h; cell line lysate: HEK293T
# Description: as §1
row,Target,log2 mean competition ratio
1,CDK5RAP2 C1528 (UniProt Q96SN8),0.185
2,CCDC77 C455,-0.349
3,CCDC74A;CCDC74B C241;(C241),0.164
4,CCT7 C310 (UniProt Q99832),0.205
5,CCDC88C C1467 (UniProt Q9P219),0.562
6,CCT8 C430,0.252
7,CDC25C C42 (UniProt P30307),0.43
8,CDR2 C432 (UniProt Q01850),0.583
9,CCT2 C289 (UniProt P78371),0.0431
10,CCAR1 C465 (UniProt Q8IX12),-0.212
11,CEP170B C217 (UniProt Q9Y4F5),-0.191
12,CDC42BPA C912 (UniProt Q5VT25),0.178
13,CERT1 C65,-0.037
14,CEP43 C244,-0.233
15,CHCHD3 C112 (UniProt Q9NX63),0.165
16,CDC123 C170 (UniProt O75794),-0.284
17,CDK5 C94 (UniProt Q00535),-0.0336
18,CCDC86 C116 (UniProt Q9H6F5),0.26
19,CFL1 C39,-0.295

row,Target,log2 mean competition ratio
1,CDK11A C428 (UniProt Q9UQ88),0.369
2,CEP170 C967 (UniProt Q5SW79),0.165
3,CDK6 C306 (UniProt Q00534),-0.183
4,CEP350 C1432 (UniProt Q5VT06),-0.118
5,CDK2AP1;CDK2AP2 C105;(C116),0.126
6,CEP112 C514 (UniProt Q8N8E3),-0.336
7,CDKN2AIP C178 (UniProt Q9NXV6),-0.0422
8,CENPF C650 (UniProt P49454),-0.0114
9,CCDC25 C83 (UniProt Q86WR0),0.227
10,CCT4 C221 (UniProt P50991),-0.0684
11,CDCA2 C714 (UniProt Q69YH5),-0.116
12,CDCA2 C235 (UniProt Q69YH5),0.101
13,CDC16 C133 (UniProt Q13042),0.102
14,CENPF C621 (UniProt P49454),0.21
15,CDC34 C191 (UniProt P49427),-0.11
16,CENPF C1328 (UniProt P49454),0.425
17,CDC42BPA C678 (UniProt Q5VT25),-0.511
18,CCT7 C450 (UniProt Q99832),0.00876
